Paper PMC7275062
No constants are given. Whether binding was seen depends on the method and setting. In cells and extracts the contact can be indirect. Some binding calls cover weakened binding; strength is not graded here. Where a sequence is shown, tags or fusion partners need not be part of it.

T1: Plasmodesmata-located protein 5 (PDLP5), half-YFP fusion (Arabidopsis thaliana) (UniProt Q8GUJ2)
T1 sequence: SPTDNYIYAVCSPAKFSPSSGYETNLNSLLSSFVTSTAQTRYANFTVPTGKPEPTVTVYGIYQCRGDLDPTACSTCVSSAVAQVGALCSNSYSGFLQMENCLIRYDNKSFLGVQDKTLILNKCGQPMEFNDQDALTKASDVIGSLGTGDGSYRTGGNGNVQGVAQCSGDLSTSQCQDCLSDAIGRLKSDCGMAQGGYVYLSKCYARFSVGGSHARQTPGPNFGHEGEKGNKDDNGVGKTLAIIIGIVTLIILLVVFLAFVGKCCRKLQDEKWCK

T2: Plasmodesmata-located protein 4 (PDLP4), half-YFP fusion (Arabidopsis thaliana) (UniProt Q6E263)
T2 sequence: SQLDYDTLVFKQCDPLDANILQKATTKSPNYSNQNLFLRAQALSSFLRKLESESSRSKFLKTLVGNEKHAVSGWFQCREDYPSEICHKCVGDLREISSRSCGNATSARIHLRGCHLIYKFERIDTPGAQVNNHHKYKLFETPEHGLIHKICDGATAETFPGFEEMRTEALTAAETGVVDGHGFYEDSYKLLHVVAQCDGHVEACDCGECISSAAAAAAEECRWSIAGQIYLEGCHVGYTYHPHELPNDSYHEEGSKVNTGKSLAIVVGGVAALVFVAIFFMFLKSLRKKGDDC

T3: Plasmodesmata-located protein 1 (PDLP1), half-YFP fusion (Arabidopsis thaliana) (UniProt Q8GXV7)
T3 sequence: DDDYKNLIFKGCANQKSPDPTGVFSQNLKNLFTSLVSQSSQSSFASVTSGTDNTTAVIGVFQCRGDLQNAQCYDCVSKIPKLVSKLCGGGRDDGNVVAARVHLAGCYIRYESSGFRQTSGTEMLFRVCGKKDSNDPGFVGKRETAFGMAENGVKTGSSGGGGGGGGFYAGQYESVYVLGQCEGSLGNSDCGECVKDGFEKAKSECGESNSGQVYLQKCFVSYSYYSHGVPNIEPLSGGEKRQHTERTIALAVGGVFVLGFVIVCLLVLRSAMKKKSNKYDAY

T4: Plasmodesmata-located protein 4 (PDLP4), EGFP or mCherry fusion (Arabidopsis thaliana) (UniProt Q6E263)
T4 sequence: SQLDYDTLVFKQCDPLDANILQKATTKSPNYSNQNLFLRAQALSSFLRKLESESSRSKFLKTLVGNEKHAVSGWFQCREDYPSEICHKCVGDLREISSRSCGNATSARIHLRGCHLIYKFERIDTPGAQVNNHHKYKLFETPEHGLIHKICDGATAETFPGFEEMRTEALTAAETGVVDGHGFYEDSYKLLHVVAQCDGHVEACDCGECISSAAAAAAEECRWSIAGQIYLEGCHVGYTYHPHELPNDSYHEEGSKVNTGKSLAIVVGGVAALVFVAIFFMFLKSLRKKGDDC

T5: Plasmodesmata-located protein 1 (PDLP1), EGFP or mCherry fusion (Arabidopsis thaliana) (UniProt Q8GXV7)
T5 sequence: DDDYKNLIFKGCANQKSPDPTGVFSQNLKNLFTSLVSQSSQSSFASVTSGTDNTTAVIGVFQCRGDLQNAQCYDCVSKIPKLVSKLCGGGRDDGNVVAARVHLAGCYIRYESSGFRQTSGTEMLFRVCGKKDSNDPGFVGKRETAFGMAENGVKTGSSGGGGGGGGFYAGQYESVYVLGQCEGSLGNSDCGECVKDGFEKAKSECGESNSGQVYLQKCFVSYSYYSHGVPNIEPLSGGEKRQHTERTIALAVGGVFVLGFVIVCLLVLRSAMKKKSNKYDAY

T6: Plasmodesmata-located protein 5 (PDLP5), EGFP or mCherry fusion (Arabidopsis thaliana) (UniProt Q8GUJ2)
T6 sequence: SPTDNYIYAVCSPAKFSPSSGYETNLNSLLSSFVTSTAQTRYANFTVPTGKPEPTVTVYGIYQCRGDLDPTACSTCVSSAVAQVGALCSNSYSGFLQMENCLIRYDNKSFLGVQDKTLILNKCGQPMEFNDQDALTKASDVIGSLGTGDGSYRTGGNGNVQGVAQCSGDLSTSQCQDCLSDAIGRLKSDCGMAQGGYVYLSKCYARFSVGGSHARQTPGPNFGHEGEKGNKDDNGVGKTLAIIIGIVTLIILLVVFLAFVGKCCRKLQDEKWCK


Tests used:
[1] = biological target: T1, Plasmodesmata-located protein 5 (PDLP5), half-YFP fusion (Arabidopsis thaliana); test: split reporter; split YFP-based BiFC; Yn and Yc fusions co-expressed in N. benthamiana leaves by agroinfiltration (1:1 mixture); imaged 29-31 hpa; YFP signal at plasmodesmata marked by callose staining
[2] = biological target: PDLP5^VV, half-YFP fusion (Arabidopsis thaliana) (UniProt Q8GUJ2); test: as above
[3] = biological target: T2, Plasmodesmata-located protein 4 (PDLP4), half-YFP fusion (Arabidopsis thaliana); test: as above
[4] = biological target: T3, Plasmodesmata-located protein 1 (PDLP1), half-YFP fusion (Arabidopsis thaliana); test: as above
[5] = biological target: PDLP5^VV, EGFP or mCherry fusion (Arabidopsis thaliana) (UniProt Q8GUJ2); test: FRET or BRET; acceptor photobleaching FRET; EGFP (donor) and mCherry (acceptor) fusions co-expressed in N. benthamiana leaf epidermal cells; mCherry bleached with the 561-nm line at 100% for 10 s in ROIs at plasmodesmata (whole nuclei for free EGFP/mCherry)
[6] = biological target: T4, Plasmodesmata-located protein 4 (PDLP4), EGFP or mCherry fusion (Arabidopsis thaliana); test: as above
[7] = biological target: T5, Plasmodesmata-located protein 1 (PDLP1), EGFP or mCherry fusion (Arabidopsis thaliana); test: as above
[8] = biological target: T6, Plasmodesmata-located protein 5 (PDLP5), EGFP or mCherry fusion (Arabidopsis thaliana); test: as above

binding [1]	binding [2]	binding [3]	binding [4]	binding [5]	binding [6]	binding [7]	binding [8]	Binder
binds	binds	binds	binds					PDLP5^VV, half-YFP fusion (protein, UniProt Q8GUJ2 26-299) SPTDNYIYAVCSPAKFSPSSGYETNLNSLLSSFVTSTAQTRYANFTVPTGKPEPTVTVYGIYQCRGDLDPTACSTCVSSAVAQVGALCSNSYSGFLQMENCLIRYDNKSFLGVQDKTLILNKCGQPMEFNDQDALTKASDVIGSLGTGDGSYRTGGNGNVQGVAQCSGDLSTSQCQDCLSDAIGRLKSDCGMAQGGYVYLSKCYARFSVGGSHARQTPGPNFGHEGEKGNKDDNGVGKTLVIIIVIVTLIILLVVFLAFVGKCCRKLQDEKWCK
				binds	binds	binds	binds	PDLP5^VV, EGFP or mCherry fusion (protein, UniProt Q8GUJ2 26-299) SPTDNYIYAVCSPAKFSPSSGYETNLNSLLSSFVTSTAQTRYANFTVPTGKPEPTVTVYGIYQCRGDLDPTACSTCVSSAVAQVGALCSNSYSGFLQMENCLIRYDNKSFLGVQDKTLILNKCGQPMEFNDQDALTKASDVIGSLGTGDGSYRTGGNGNVQGVAQCSGDLSTSQCQDCLSDAIGRLKSDCGMAQGGYVYLSKCYARFSVGGSHARQTPGPNFGHEGEKGNKDDNGVGKTLVIIIVIVTLIILLVVFLAFVGKCCRKLQDEKWCK
binds		binds	binds					Plasmodesmata-located protein 5 (PDLP5), half-YFP fusion (protein, UniProt Q8GUJ2 26-299) SPTDNYIYAVCSPAKFSPSSGYETNLNSLLSSFVTSTAQTRYANFTVPTGKPEPTVTVYGIYQCRGDLDPTACSTCVSSAVAQVGALCSNSYSGFLQMENCLIRYDNKSFLGVQDKTLILNKCGQPMEFNDQDALTKASDVIGSLGTGDGSYRTGGNGNVQGVAQCSGDLSTSQCQDCLSDAIGRLKSDCGMAQGGYVYLSKCYARFSVGGSHARQTPGPNFGHEGEKGNKDDNGVGKTLAIIIGIVTLIILLVVFLAFVGKCCRKLQDEKWCK
					binds	binds		Plasmodesmata-located protein 5 (PDLP5), EGFP or mCherry fusion (protein, UniProt Q8GUJ2 26-299) SPTDNYIYAVCSPAKFSPSSGYETNLNSLLSSFVTSTAQTRYANFTVPTGKPEPTVTVYGIYQCRGDLDPTACSTCVSSAVAQVGALCSNSYSGFLQMENCLIRYDNKSFLGVQDKTLILNKCGQPMEFNDQDALTKASDVIGSLGTGDGSYRTGGNGNVQGVAQCSGDLSTSQCQDCLSDAIGRLKSDCGMAQGGYVYLSKCYARFSVGGSHARQTPGPNFGHEGEKGNKDDNGVGKTLAIIIGIVTLIILLVVFLAFVGKCCRKLQDEKWCK
